Reference: the supplement of paper PMC10849652
The list shows a part of the results.

Sequences of proteins named here, by UniProt entry; tags and fusion partners are left off. A change or cut given only in a name is not applied to a line headed by its entry.
UniProt Q96IU4: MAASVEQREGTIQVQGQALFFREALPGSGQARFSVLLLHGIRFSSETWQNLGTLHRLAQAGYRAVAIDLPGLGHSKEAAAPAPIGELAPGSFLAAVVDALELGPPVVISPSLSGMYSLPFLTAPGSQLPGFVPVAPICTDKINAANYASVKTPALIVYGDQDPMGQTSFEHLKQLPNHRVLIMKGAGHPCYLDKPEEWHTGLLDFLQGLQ
UniProt Q96GS6: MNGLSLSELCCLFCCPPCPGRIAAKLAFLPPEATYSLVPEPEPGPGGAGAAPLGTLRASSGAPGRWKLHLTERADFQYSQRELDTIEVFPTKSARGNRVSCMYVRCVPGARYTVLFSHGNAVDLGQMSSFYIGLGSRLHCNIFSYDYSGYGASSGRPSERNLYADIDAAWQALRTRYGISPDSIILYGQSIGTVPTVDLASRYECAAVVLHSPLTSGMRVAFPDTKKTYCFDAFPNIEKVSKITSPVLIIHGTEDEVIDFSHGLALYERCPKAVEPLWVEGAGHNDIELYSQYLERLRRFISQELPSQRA
UniProt Q9H7C9: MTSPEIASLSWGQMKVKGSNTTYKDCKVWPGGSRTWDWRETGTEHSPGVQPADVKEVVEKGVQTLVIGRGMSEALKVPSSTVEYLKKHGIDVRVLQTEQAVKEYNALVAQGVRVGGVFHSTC
UniProt Q9UKV3: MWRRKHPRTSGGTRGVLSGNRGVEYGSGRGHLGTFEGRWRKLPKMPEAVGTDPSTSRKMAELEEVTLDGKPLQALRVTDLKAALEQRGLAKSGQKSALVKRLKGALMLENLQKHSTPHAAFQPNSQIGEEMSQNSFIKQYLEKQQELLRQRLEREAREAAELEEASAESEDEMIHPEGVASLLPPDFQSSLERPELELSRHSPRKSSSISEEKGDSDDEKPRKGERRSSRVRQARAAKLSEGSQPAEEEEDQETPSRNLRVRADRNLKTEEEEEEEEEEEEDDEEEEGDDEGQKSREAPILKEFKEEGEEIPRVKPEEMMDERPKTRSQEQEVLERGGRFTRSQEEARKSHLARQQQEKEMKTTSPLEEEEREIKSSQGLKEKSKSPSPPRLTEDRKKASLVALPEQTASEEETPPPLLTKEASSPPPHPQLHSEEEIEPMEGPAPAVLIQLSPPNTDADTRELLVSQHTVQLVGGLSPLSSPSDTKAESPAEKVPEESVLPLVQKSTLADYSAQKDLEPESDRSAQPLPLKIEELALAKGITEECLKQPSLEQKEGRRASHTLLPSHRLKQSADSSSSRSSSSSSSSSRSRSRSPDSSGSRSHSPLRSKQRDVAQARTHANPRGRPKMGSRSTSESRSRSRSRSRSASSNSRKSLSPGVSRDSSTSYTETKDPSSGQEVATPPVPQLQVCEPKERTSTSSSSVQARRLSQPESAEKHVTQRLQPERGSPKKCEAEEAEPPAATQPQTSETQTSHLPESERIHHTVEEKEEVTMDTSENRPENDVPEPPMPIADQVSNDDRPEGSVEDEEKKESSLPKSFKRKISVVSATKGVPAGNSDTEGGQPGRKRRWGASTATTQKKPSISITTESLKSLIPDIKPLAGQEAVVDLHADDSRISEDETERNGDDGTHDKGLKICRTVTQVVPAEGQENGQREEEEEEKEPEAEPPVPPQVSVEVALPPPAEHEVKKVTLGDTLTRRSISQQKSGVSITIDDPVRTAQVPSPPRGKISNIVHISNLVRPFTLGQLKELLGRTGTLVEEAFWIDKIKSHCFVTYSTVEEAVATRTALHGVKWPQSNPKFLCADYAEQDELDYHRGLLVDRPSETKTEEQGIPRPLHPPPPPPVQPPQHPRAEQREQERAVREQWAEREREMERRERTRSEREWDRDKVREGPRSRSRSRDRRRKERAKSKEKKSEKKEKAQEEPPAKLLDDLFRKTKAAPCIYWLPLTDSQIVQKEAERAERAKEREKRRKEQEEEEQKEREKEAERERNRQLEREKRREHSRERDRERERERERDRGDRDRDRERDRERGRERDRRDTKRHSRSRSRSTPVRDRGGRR
UniProt Q5VST6: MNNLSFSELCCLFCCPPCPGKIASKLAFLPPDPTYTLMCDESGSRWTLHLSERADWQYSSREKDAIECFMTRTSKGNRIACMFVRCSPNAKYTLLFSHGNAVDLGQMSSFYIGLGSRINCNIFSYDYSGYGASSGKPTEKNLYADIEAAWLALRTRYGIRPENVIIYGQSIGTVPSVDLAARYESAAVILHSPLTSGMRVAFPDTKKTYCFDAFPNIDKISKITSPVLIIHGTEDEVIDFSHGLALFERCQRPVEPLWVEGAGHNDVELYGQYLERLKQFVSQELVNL

Legend:
Experiment in all cases: log2 fold change, soluble protein after heating vs DMSO (PISA); higher = thermal stabilisation; K562 lysate, 10 uM; active = over 0.2 and 3.5 SD of the protein, either way, in both replicates (recomputed)
[1] = compound: C1=CC=C(C=C1)[C@H](COC2=CC3=C(C=C2)NC(=O)N3)NC(=O)C4=CC=CN(C4=O)CC5=CC(=C(C=C5)F)F
Summary of the method: (§1)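 Thermal stability, expressed as log-two fold change relative to solvent controls, is given from duplicates. Crude K562 extract in PBS pH 7.4 with 1 mM MgCl2, at 1 mg/mL protein, was treated with 10 μM compound for 30 min and heated in aliquots for 3 min across 48°C-58°C. After pooling, adjustment to 0.5% NP-40 at 4°C and centrifugation at 21,000xg for 90 min, supernatant protein was measured by TMTpro 16plex LC-MS/MS with channel sums equalised.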

[2] = compound: CC1=C(SC2=C1C(=N[C@H](C3=NN=C(N32)C)CC(=O)N)C4=CC=C(C=C4)Cl)C
Summary of the method: as §1

[3] = compound: CC1=C2C(=CC=C1)N=C(N(C2=O)C3=CC=CC=C3C)CN4C=NC5=C(N=CN=C54)N
Summary of the method: as §1

[4] = compound: Cc1sc2c(c1C)C(c1ccc(Cl)cc1)=N[C@@H](CC(=O)OC(C)(C)C)c1nnc(C)n1-2
Summary of the method: as §1

[5] = compound: c1ccc([C@@H]2C[C@H]2NC2CCNCC2)cc1
Summary of the method: as §1

Measured: log2 fold change

ABHD14B (UniProt Q96IU4)
inactive: [1] -0.047 | [2] 0.015 | [3] 0.007 | [4] -0.028 | [5] -0.019

ABHD17A isoform 2 (UniProt Q96GS6)
inactive: [1] -0.053 | [2] -0.02 | [3] 0.011 | [4] -0.025 | [5] -0.069

AAMDC (UniProt Q9H7C9)
inactive: [1] -0.03 | [2] -0.042 | [3] 0.094 | [4] -0.009 | [5] -0.023

ACIN1 isoform 5 (UniProt Q9UKV3)
inactive: [1] -0.002 | [2] 0.019 | [3] 0.013 | [4] -0.01 | [5] 0.012

ABHD17B (UniProt Q5VST6)
inactive: [1] 0.014 | [2] 0.044 | [3] -0.028 | [4] -0.044 | [5] -0.198

AAK1, A0A096LP25
inactive: [1] -0.033 | [2] -0.075 | [3] -0.036 | [4] -0.043 | [5] -0.067
